Among all 52,000 sequences or so, about 210 (0.4%) were called active.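 The calls were made as follows: active = gene whose silencing raises cell survival under the drug, median off-target-corrected z-score across its silencing RNAs 2 or more; inactive = the rest.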 The list shows a part of the results.

This assay can be described thus: Resistance to Poly (ADP-Ribose) Polymerase inhibitor: Gene Identification via Genome-wide siRNA Screen. As to conditions: mouse BRCA2 R2336H ES cells, olaparib, CellTiter-Glo viability; hits give high values. In short, it runs like this: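 Mouse BRCA2 R2336H ES cells were reverse-transfected with siRNA (20 nM final), treated at 48 h with 500 nM olaparib, and read by CellTiter-Glo after 72 h. Scores: MAD-based z per siRNA, median per gene, seed off-target correction.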
On the technique in general: ATP-based viability assays read luminescence as a measure of living cells.
For “GGACACAGAUGCUUUCUUGTT against 1700030A21Rik”, the z-score is inactive: 1.35.
The value for GCGGUCGUUGGCAAAAACUTT against Commd8 was inactive: 0.629; that for GGUCUACAACCAAAUCUGCTT against Clecsf12 was inactive: 1.43.
With GGACUGCAUCCAAAUUCCATT against Dnclc1, the z-score is inactive: 1.01.
For the sequence CCAUGGAUGUAUGAGACUGTT against H2-M1, the z-score is inactive: -1.41.
The value for GGUCUUAAACAGUUACAUGTT against Dmtf1 was inactive: -0.417.
Next, GGUGAUUUCUUUGUGUGAUTT against Rpl22: inactive: -1.95; “GGAAUGAAAAGGUAUGUGATT against D11Ertd498e”: inactive: 1.64; GGGAUAGCUGUCUUUCAUUTT against Extl3: inactive: -2.09.
The value for GGCAUUCUUCAAGAGGACGTT against Esrrg was inactive: -0.576.
On to CGUAGGAAUGAUCACAUUGTT against Olfr1136, for which the z-score was inactive: -2.32.
Next, “GCAGCACUGGAAUAUUUGGTT against 5730469M10Rik”: inactive: -1.06; GGCCUGAGAUCGAUCAUUCTT against Plcb4: inactive: 0.216; GCACAGAUAAAACUAACUATT against Kcna7: inactive: 0.834.
The value for GGAAAGAGAAGAAAACAAATT against Tmem25 was inactive: 0.471; that for “GGUGACUGUCCUGAACUAUTT against 2600010E01Rik” was inactive: -0.0999.
Regarding GGGAGAACUAUCACCAUAATT against Wdr11, the z-score is inactive: -1.24.
Next, GGGAAAAGAUUCAGCUAGATT against Ntn4: inactive: -1.25; GGGCACGGUAUUCCAUUUCTT against Tex292: inactive: -0.32; GCCAUAACCUAAGACUUUATT against Adcyap1r1: inactive: -0.209.
As to CCAAGGGACACAUGCCAGATT against Olfr714, the z-score is inactive: 0.213.
Regarding GGAGUUGGAGAACAUUAUGTT against Dmrt2, the z-score is inactive: 0.83.
Next, GCCGGAUCUAUUAAAGAAATT against Hdac2: inactive: 0.649.
The value for GUCAAAGCACCAUUUGAGUTT against V1rc32 was inactive: -0.166.
As for GGUGAUGGAAUACCAAAGGTT against ORF28, the z-score was inactive: -0.844.
The value for GGCAUCUGAGCUGAGGAUUTT against Gem was inactive: 0.275; that for GGACAAAUCUUCGUGCAAATT against Tle4 was inactive: 1.27.
Next, GGAAGACCUUCUUAAACACTT against Gpr73l1: inactive: 1.16; GGUAUCCAGAUGAAAGAUGTT against Nalp10: inactive: -1.18; GGGUUCCUCCUUUCACAGATT against Ppia: inactive: -0.754.
The value for “CGUAGAGAUGGCGUAUGUCTT against E130307M08Rik” was inactive: -1; that for GCUUGCUGUUACGAUUCGCTT against Rab35 was inactive: 0.759; that for UAACUCCAUGAUCAAUCCCTT against Gpr6 was inactive: 0.687.
For “GGCCAGAAUGUAUAAAGCUTT against 5730589L02Rik”, the z-score is inactive: 1.84.
The value for “GGCCGAUCCUCUUUUAAAUTT against C130034I18Rik” was inactive: -0.22.
The value for GGAAAGUCUCUGUUGUUCUTT against Alas1 was inactive: -1.09; that for GGGAUUCUGAUCGUGUCCATT against Olfr1509 was inactive: 0.736.
The value for GGAAAAACAGCUUAACACUTT against Svs7 was inactive: 0.732; that for “CCAGUAGUUACAAUGUUCUTT against 9530077C05Rik” was inactive: 0.21; that for “CGAAAGGGAGAAAUUUGCUTT against 9930013L23Rik” was inactive: 1.62.
For the sequence “GGUGAAAAGCAGCUAACAATT against 4921533L14Rik”, the z-score is inactive: -0.268.
In the case of GCCUGAUAGUGCAGAAACATT against Rabl2a, the z-score is inactive: -2.62.
Next, GCUGAAAAUAUACCAUUCATT against LOC239447: inactive: -1.97.
In the case of CGUGAGAUCAUUGAUGUGGTT against Ankrd2, the z-score is inactive: 0.745.
Next, GCCUUUCAUACAUUCAACATT against Olfr313: inactive: -0.0644.
Next, “CCCAACACCCAAUAAAGUUTT against 2610034E13Rik”: inactive: 0.0356; “GCACCUUUGAGUGCAACAUTT against 1700022N24Rik”: inactive: -1.37.
The value for AGGUGAUGGGUUAUGGCAGTT against Olfr1331 was inactive: 0.0783; that for CCCUGUAAUCAGUAGAAGATT against AU041783 was inactive: -1.26.
For the sequence “GGUCUACAUUCGGAUAAAATT against 4933437K13Rik”, the z-score was inactive: 0.403.
Next, GGUAGAAGUCGUCUCUAACTT against Csf2: inactive: 0.374; GGGACACACGGUAUACAUCTT against Pfkl: inactive: 0.358.
Next, CCCUGCGCCCUCUAAUAAATT against Pla2g1b: inactive: -1.44; GGAUGUAAAGAGGAAUCUCTT against Abca16: inactive: 0.00377.
The value for GCCAGAAUGUGCUCAUUCGTT against Amhr2 was inactive: -2.04.
For “GGUGUGCUAUACAUUAAGATT against 4930422G04Rik”, the z-score is inactive: -0.604.
The value for GCCUGUGGUAGGAUACUAUTT against Denr was inactive: -2.27.
Next, GGAAUUUUCAAGGAACAAUTT against Il1rapl2: inactive: 1.98; GGCCAUCAGUAACCCAUUGTT against Olfr1132: inactive: -0.731; GGAGUACCCGGACUACAAGTT against Sox3: inactive: -0.146.
Next, “GGAGUAGAUUUAAAAGGCATT against 4933440M02Rik”: inactive: -0.818; “GGUCAAGAGAAUGUACAGATT against 2810404F18Rik”: inactive: -0.292.
For the sequence CCAGCAGCAAUUAGGACGUTT against Ogdh, the z-score was inactive: -0.941.
Next, CCAUGAGAACCUGAUGAAUTT against Pag: inactive: -0.41; GGAAAUGUGCAAUUUAGUGTT against Abcb1a: inactive: -0.29.
Turning to “GGACAGAACUGGAAAUUUUTT against D11Ertd603e”, the z-score was inactive: 0.454.
Next, “GGACUGGUCCAUGAGAAGGTT against 1200014P03Rik”: inactive: -0.0863; GGUCCUCCAGUAAGGACAATT against Hsd3b6: inactive: -0.117.
Next, CGCUAAUCUUCGAAAACCUTT against Abcc12: inactive: 2.15; GCCCUUUGAGACAUUGGAATT against Ciz1: inactive: -0.161.
As for GGAGCAAAAGGGUCAGAGGTT against Socs3, the z-score is inactive: -0.964.
The value for GCCUUCAUAGUUGGAAACCTT against Olfr172 was inactive: 0.619.
The value for GGGUAUGAUUAAAAGGUAATT against Gdf8 was inactive: 0.086.
For “GGAUCCGUGCUGAAGUUUUTT against 0610037P05Rik”, the z-score was inactive: 0.441.
The value for GGACCUCAACAUCCAGAGATT against Sema6b was inactive: 0.337; that for “GGCUAAUAUUUCCAUUGUATT against 1110018M03Rik” was inactive: -0.584.
Next, GGUUUUGUUAUGGUAAGUCTT against Vdr: inactive: -0.305; CCAUAACCGUGGAAAUUUUTT against Galnt3: inactive: 0.0839; GUUCUAUGGUAGACAUUAUTT against Kb14: inactive: -0.645.
Next, “GGCCAGAGACAGUUAUCUUTT against 1110032A04Rik”: inactive: 2.12; CGUGCACACUCAGAGAGUUTT against Wac: inactive: 0.0117; GCCCAUGUCCGUUACUAUATT against Trim2: inactive: 0.951.
Turning to “UCUGCUAAGCUGACCCUUUTT against 2210020M01Rik”, the z-score was inactive: -1.06.
The value for GCAGUUACGUUAGUUAAUATT against AA960558 was inactive: 0.265.
The value for GGACUUCGGCACUGCUUAUTT against AI931714 was inactive: -1.92; that for GGACAUUGUUGUCCAAACUTT against Spnb1 was inactive: 0.446; that for GGAGAUUCUGUGCUACUCCTT against Xrcc3 was inactive: 0.311.
The value for “GGUGAAUGUUGGAGACACATT against 2900046G09Rik” was inactive: 2; that for GCACUGCAUUUGAAUAGCATT against Lrfn5 was inactive: 1.44; that for GGGUAGCUGGCGAAUCAAATT against Ptpro was inactive: 1.43.
Consider GGUAAUUUGUUUGUGGUGATT against Mtnr1b, for which the z-score is inactive: -0.531.
The value for GGGUUAACUUUUGUUCAAUTT against LOC622129 was inactive: 0.285; that for “GCACUGACAAAUCAUGGUATT against 4833439L19Rik” was inactive: -1.09; that for “GGAUGAAAUCGCCAUAUGUTT against 6530403A03Rik” was inactive: 1.24.
Next, GGCAAAAACUACGUGCACCTT against Mapk7: inactive: 0.177.
Consider GCAGGGAUUUCUCGAAUGATT against Pgm1, for which the z-score was inactive: -0.0851.
Next, CCAGCUCAUUCAAGAGCAATT against Tmc6: inactive: 1.39; GGAGAAAUUCAAAGAGAGUTT against Gas2: inactive: -0.327; CCUACUACUUCGUUAUCCGTT against Chrna2: inactive: 0.222.
The value for GCUACUUCAGUCAAGAACATT against C77668 was inactive: -0.812.
With GCACAGGUAAUUUGUAAUGTT against Btbd3, the z-score is inactive: -0.416.
As for GGGAGCAUCAUGUGAAGAATT against Dnajc5b, the z-score was inactive: -1.47.
The value for GCUGAACGAUGACUAUCCCTT against Cryba4 was inactive: 0.859.

The values are drawn from PubChem BioAssay AID1347423 (Functional Genomics Laboratory (NCATS/FGL), 2020).
